PubChem BioAssay AID485349 (National Center for Advancing Translational Sciences (NCATS), 2010)
About 620 (0.19%) of roughly 320,000 compounds were called active. The shares of active, inactive and inconclusive entries below differ from those in the screen. The call rests on the fitted dose curve; in most records, active means well fitted activation curve with a large enough effect; inconclusive means small, poorly fitted or top-dose-only effect; inactive means no such curve, though single readings can be large or run the other way. Potencies beside an inconclusive call are fits to weak or partial responses and may not hold up.

Assay: qHTS Assay for Identifying a Potential Treatment of Ataxia-Telangiectasia; further: nearly all actives have a fitted effect of over 45% in size
Details: […] A-T fibroblasts, KAP-1 phosphorylation AlphaLISA, neocarzinostatin DNA damage 30 min before lysis; series mostly up to 57.5 µM
Method in brief: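 ATM-like activity read as KAP-1 phosphorylation via AlphaLISA donor/acceptor antibody pairs after lysis and 6 hr at 25C. Cells were ATM-null patient fibroblasts ([…], hTERT), dosed 60 min, then exposed to the DSB inducer NCS for 30 min.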
Potency means the concentration at half of the fitted maximal effect.

**Q.** For CS(=O)(=O)c1[nH]nc(-c2cccc(Cl)c2)c1C#N, which Potency is on record?
**A.** active: 39.8 µM

**Q.** With CNC(=O)c1ccc(-c2sc3nc(N4CCOCC4)c4c(c3c2N)CCCC4)o1 as the compound, how does the Potency read?
**A.** inconclusive: 39.8 µM [activator, partial curve]

**Q.** For O=[N+]([O-])/C=C/c1cn(Cc2ccccc2)c2ccccc12, which Potency is on record?
**A.** inconclusive: 28.2 µM [activator, partial curve]

**Q.** For CCCCCCCc1ccc(-c2ccc(O)cc2)nc1, which Potency is on record?
**A.** inconclusive: 39.8 µM [activator, single point]

**Q.** Which Potency does the source give for O=C(CN1CCOCC1)Nc1ccc(F)cc1 here?
**A.** inconclusive: 20 µM [activator, partial curve]

**Q.** For CCOC(=O)C1=C(C)NC2=C(C(=O)C(C(=O)OCC)C(c3ccc(OC)cc3)C2)C1c1ccccn1 (stereo not drawn), which Potency is on record?
**A.** inactive

**Q.** With Nc1nc(N(Cc2ccccc2)Cc2ccccc2)nc(C(F)(F)F)n1 as the compound, how does the Potency read?
**A.** inactive

**Q.** Which Potency does the source give for C=CCn1c(Sc2nnc(C)s2)nc2c1c(=O)[nH]c(=O)n2C here?
**A.** inactive

**Q.** For CCc1cc(=O)oc2c(CN3CCN(C)CC3)c(O)ccc12, which Potency is on record?
**A.** inconclusive: 28.2 µM [activator, single point]

**Q.** With CC1=CC(C)(C)n2c(O)c(N=N)c3c(C)ccc1c32 as the compound, how does the Potency read?
**A.** active: 31.6 µM

**Q.** For COc1ccc(S(=O)(=O)N2CCOCC2)cc1NC(=O)Cc1c(Cl)cccc1Cl, which Potency is on record?
**A.** inactive

**Q.** For CCc1c(C2(O)CCCCC2)[nH]c2c(C(=O)OC)cc(Cl)cc12, which Potency is on record?
**A.** inactive

**Q.** For COc1cc(C#Cc2c(C=O)n(C)c3ccccc23)cc(OC)c1, which Potency is on record?
**A.** inconclusive: 31.6 µM [activator, partial curve]

**Q.** With CCOC(=O)c1sc2nc(C)cc(C)c2c1N as the compound, how does the Potency read?
**A.** inconclusive: 28.2 µM [activator, partial curve]

**Q.** Which Potency does the source give for COc1c(F)c(F)c(C(=O)Nc2ccc(N3CCN(C(C)=O)CC3)c(Cl)c2)c(F)c1F here?
**A.** inactive

**Q.** Which Potency does the source give for COC(=O)c1ccccc1-c1ccc(/C=N/NC(N)=O)o1 here?
**A.** inconclusive: 39.8 µM [activator, single point]

**Q.** With O=S1(=O)C=C(Sc2nc3ccccc3s2)c2ccccc21 as the compound, how does the Potency read?
**A.** inconclusive: 7.08 µM [activator, single point]

**Q.** With COc1cc2c(cc1NC(=S)Nc1cccc(C(F)(F)F)c1)oc1ccccc12 as the compound, how does the Potency read?
**A.** inactive

**Q.** With COc1ccc(N2CCN(S(=O)(=O)CCNC(=O)COc3ccccc3)CC2)cc1 as the compound, how does the Potency read?
**A.** inactive

**Q.** Which Potency does the source give for CCc1ccccc1OCCCOc1ccc(OC)cc1 here?
**A.** inconclusive: 20 µM [activator, partial curve]

**Q.** For COc1ccc(C(=O)N2CCCC2(C#N)c2ccccc2)cc1[N+](=O)[O-] (stereo not drawn), which Potency is on record?
**A.** inconclusive: 0.631 µM [activator, partial curve, poor fit]

**Q.** Which Potency does the source give for NNC(=O)c1cccc(S(=O)(=O)Nc2cc(Cl)ccc2Cl)c1 here?
**A.** active: 28.2 µM

**Q.** With CC(C)(C)n1ncc(Oc2ccccc2[N+](=O)[O-])c(Cl)c1=O as the compound, how does the Potency read?
**A.** inconclusive: 0.631 µM [activator, partial curve, poor fit]

**Q.** With COc1ccc2[nH]c(=O)c(CN(Cc3ccco3)Cc3nnnn3Cc3ccccc3)cc2c1 as the compound, how does the Potency read?
**A.** inconclusive: 0.631 µM [activator, full curve, poor fit]

**Q.** Which Potency does the source give for COC(=O)c1ccncc1C(=O)Nc1ccc(Oc2ncc(C(F)(F)F)cc2Cl)cc1 here?
**A.** inconclusive: 0.631 µM [activator, full curve, poor fit]

**Q.** For COc1ccc(C2CC(O)(c3ccccc3)Oc3c(C)ccc(C)c32)cc1 (stereo not drawn), which Potency is on record?
**A.** inconclusive: 39.8 µM [activator, partial curve, poor fit]

**Q.** Which Potency does the source give for Cc1cc(Nc2ccccc2)n(-c2nc3ccccc3[nH]2)n1 here?
**A.** inconclusive: 35.5 µM [activator, single point]

**Q.** Which Potency does the source give for CC(=O)Nc1nc(COc2ccccc2)cs1 here?
**A.** inactive

**Q.** With Cc1cc2c(c(=O)o1)C(c1ccc([N+](=O)[O-])o1)C(C#N)=C(N)O2 (stereo not drawn) as the compound, how does the Potency read?
**A.** active: 31.6 µM

**Q.** With O=C(Nc1ccc2c(c1)OCCO2)C1CC(c2ccccc2Cl)=NO1 (stereo not drawn) as the compound, how does the Potency read?
**A.** inconclusive: 3.55 µM [activator, full curve, poor fit]

**Q.** With Cc1cc(C(=O)Cn2nc(C(=O)O)c3ccccc3c2=O)c(C)n1-c1ccc(OC(F)F)cc1 as the compound, how does the Potency read?
**A.** inactive

**Q.** With CCN(CC)c1ccc2cc(NC(=O)CCC(=O)O)c(=O)oc2c1 as the compound, how does the Potency read?
**A.** inconclusive: 28.2 µM [activator, partial curve]

**Q.** With c1ccc(-c2cn3nc(-c4ccccc4)c(-c4ccccc4)nc3n2)cc1 as the compound, how does the Potency read?
**A.** inactive

**Q.** Which Potency does the source give for CCCCN(C(=O)c1cc2ccccc2o1)c1c(N)n(CCCC)c(=O)[nH]c1=O here?
**A.** inactive

**Q.** For Cc1nnsc1C(=O)N(Cc1ccccc1)C(C)C, which Potency is on record?
**A.** inconclusive: 39.8 µM [activator, partial curve, poor fit]

**Q.** For COc1cc(OC)cc(-c2sc3ccc(OC)cc3c2C#CC(C)(C)O)c1, which Potency is on record?
**A.** inconclusive: 20 µM [activator, partial curve]

**Q.** For N=c1n(CC(=O)c2ccc(Br)cc2)c2ccccc2n1Cc1ccccc1, which Potency is on record?
**A.** active: 22.4 µM

**Q.** For COc1ccc(CN2CCCC(N3CCc4ccccc4C3)C2)c(O)c1 (stereo not drawn), which Potency is on record?
**A.** inconclusive: 31.6 µM [activator, partial curve]

**Q.** For COc1ccc(C(CC(=O)c2ccc(C)cc2)C(C#N)C#N)cc1OC (stereo not drawn), which Potency is on record?
**A.** inactive

**Q.** Which Potency does the source give for Nc1nonc1C(=O)OCC(=O)N1CCCCC1 here?
**A.** inconclusive: 25.1 µM [activator, single point]

**Q.** Which Potency does the source give for C=CCSc1n[nH]c2nc3c(c(=O)n12)C1(CCCC1)Cc1ccccc1-3 here?
**A.** inactive

**Q.** With COc1ccc(-c2noc(CNC(=O)c3ccc4c(c3)OCO4)n2)cc1OC as the compound, how does the Potency read?
**A.** inactive

**Q.** Which Potency does the source give for COc1ccc(S(=O)(=O)Nc2cc(C)on2)cc1 here?
**A.** inactive

**Q.** With O=C(c1ccccc1)C(CCC(CN1CCOCC1)C(=O)c1ccccc1)CN1CCOCC1 (stereo not drawn) as the compound, how does the Potency read?
**A.** active: 35.5 µM

**Q.** With Cc1ccc(C(=O)/C=C/c2ccccc2[N+](=O)[O-])cc1 as the compound, how does the Potency read?
**A.** inconclusive: 39.8 µM [activator, single point]

**Q.** Which Potency does the source give for CCN1C(=O)c2cccc3c(N)ccc(c23)C1=O here?
**A.** active: 39.8 µM

**Q.** With O=C(N/N=C/c1cn(CC(=O)N2CCOCC2)c2ccccc12)c1cccnc1 as the compound, how does the Potency read?
**A.** inconclusive: 39.8 µM [activator, partial curve]

**Q.** Which Potency does the source give for N#CCCN(Cc1ccccc1)C(=O)Nc1ccc2c(c1)CCO2 here?
**A.** inconclusive: 0.708 µM [activator, full curve, poor fit]

**Q.** Which Potency does the source give for COC(=O)c1cc(NC(=O)C2(S(=O)(=O)c3ccc(Cl)cc3)CC2)cc(C(=O)OC)c1 here?
**A.** inconclusive: 31.6 µM [activator, single point]

**Q.** For O=C(CSc1ccccn1)N/N=C/c1cc([N+](=O)[O-])ccc1O, which Potency is on record?
**A.** inconclusive: 0.708 µM [activator, full curve, poor fit]

**Q.** With CN(C)CCCNc1cc(C(C)(C)C)nc2c(-c3ccc(Cl)cc3)cnn12 as the compound, how does the Potency read?
**A.** inactive

**Q.** For CC(C)(C=O)C1=CC(=O)c2ccccc2C1=O, which Potency is on record?
**A.** inconclusive: 4.47 µM [activator, single point]

**Q.** Which Potency does the source give for CC(C)CCN1CCC(C)(NC(=O)c2ccccc2)C1=O (stereo not drawn) here?
**A.** inconclusive: 0.631 µM [activator, full curve, poor fit]

**Q.** With COc1ccc([C@H]2CC(=O)C=C(/C=C/Cc3ccccc3)C2)cc1 as the compound, how does the Potency read?
**A.** inconclusive: 17.8 µM [activator, partial curve]

**Q.** For S=c1[nH]nc(-c2cccs2)n1C1CCCCC1, which Potency is on record?
**A.** inactive

**Q.** With O=C(/C=C/c1ccccc1[N+](=O)[O-])c1ccccc1Br as the compound, how does the Potency read?
**A.** inconclusive: 31.6 µM [activator, single point]

**Q.** Which Potency does the source give for COc1ccc(CCCc2nnc(SCc3nc4ccccc4c(=O)[nH]3)n2C)c(C)c1 here?
**A.** inconclusive: 22.4 µM [activator, partial curve, poor fit]

**Q.** With O=C(COC(=O)/C=C/c1ccc(F)cc1)NCc1ccco1 as the compound, how does the Potency read?
**A.** inconclusive: 0.631 µM [activator, partial curve, poor fit]

**Q.** Which Potency does the source give for CCCCOc1ccc(CON(C(C)=O)C(C)=O)cc1Cl here?
**A.** inconclusive: 0.708 µM [activator, full curve, poor fit]

**Q.** Which Potency does the source give for COc1ccc(NC(=S)NCc2ccc(F)cc2)cc1 here?
**A.** active: 22.4 µM

**Q.** For O=C(CS(=O)CC(=O)N(c1cccc(F)c1)C(C(=O)NC1CCCCC1)c1ccco1)Nc1ccc(F)cc1 (stereo not drawn), which Potency is on record?
**A.** inactive

**Q.** Which Potency does the source give for Cc1cc2nn(-c3ccc(Cl)cc3)nc2cc1N here?
**A.** active: 22.4 µM

**Q.** With CCn1c(C)c(C(=O)O)c2cc(OC)c3ccccc3c21 as the compound, how does the Potency read?
**A.** active: 10 µM

**Q.** With O=C(/C=C/c1ccc(S(=O)(=O)N2CCOCC2)cc1)OCC(=O)c1ccc([N+](=O)[O-])cc1 as the compound, how does the Potency read?
**A.** inconclusive: 39.8 µM [activator, single point]

**Q.** Which Potency does the source give for Cc1nc2sc(C(N)=O)c(N)c2c2c1CCCC2 here?
**A.** active: 8.91 µM

**Q.** With NCc1cccc(CNc2ccc([N+](=O)[O-])cc2C(N)=O)c1 as the compound, how does the Potency read?
**A.** inconclusive: 39.8 µM [activator, partial curve]

**Q.** With CCCCc1nc(N2CCOCC2)c(C#N)c2c1CCCC2 as the compound, how does the Potency read?
**A.** inconclusive: 39.8 µM [activator, single point]

**Q.** With CCN(CC)S(=O)(=O)c1ccc(NC(=O)CSc2nnc(-c3cccc(OC)c3)n2C)cc1 as the compound, how does the Potency read?
**A.** inconclusive: 39.8 µM [activator, single point]

**Q.** Which Potency does the source give for COc1ccc(C2NC(=S)NC3=C2N2CCC3CC2)cc1 (stereo not drawn) here?
**A.** active: 2.51 µM

**Q.** Which Potency does the source give for Cc1ccc(C)c(-c2csc(Nc3ncccn3)n2)c1 here?
**A.** active: 3.16 µM

**Q.** With Nc1ccccc1-c1nc2ccccc2c(=O)o1 as the compound, how does the Potency read?
**A.** inconclusive: 7.08 µM [activator, single point]

**Q.** Which Potency does the source give for CC/C=C/C(=O)N1CC2(CC(c3cccc(NC(=O)COc4ccc(Cl)cc4)c3)=NO2)C[C@H]1C(N)=O (stereo partly drawn) here?
**A.** inconclusive: 15.8 µM [activator, partial curve]

**Q.** For c1ccc(-c2noc(-c3cccc4ccccc34)n2)cc1, which Potency is on record?
**A.** inconclusive: 22.4 µM [activator, partial curve]
